Reference: US20230365626A1, “Alloferon Peptide and Method Using the Same” (Industry Academy Cooperation Foundation of Sejong University, priority 2020, published 2023)
Part of at least one peptide drawing is inferred or uncertain, most often the ends. Square brackets hold non-standard residues; d marks the D form. Peptide text beside a SMILES is read from it.

Columns and labels:
[1] = test system: Huntington protein aggregates (Htt aggregates); assay: Mutant Huntington protein aggregates in transfected 293T cells; type: cell-based
Experimental: (§1) In addition, in this study, H4 cell line (GL-H4) and 293T cell line in which the GFP-LC3 plasmid was permanently infected were used. As a cell culture medium, 10% fetal bovine serum (Hyclone, USA) and a mixture solution of antibiotics and antifungal agents (WellGene, South Korea) were added to Minimum Essential Medium (MEM, WellGene) and incubated in a cell incubator in which the conditions of 37° C. and 5% CO2 were maintained.
In the pre-preparation process, 10-12 days after cell culture, the culture medium of the cerebral cortex nerve cells was changed to a minimum essential medium (MEM, Gibco, USA) without adding serum, and then was treated with N,N,N′,N′-tetrakis(2-pyridylmethyl)ethylene-diamine (TPEN, 2 μM, Sigma, USA), which is a zinc chelator, 50 μM chloroquine (CQ), 100 nM bafilomycin A-1 (Baf-A1), 500 μM methyl-beta-cyclodextrin (MβCD), and 2 μM chloropromazine (CP). Here, the MβCD is a caveolin-mediated endocytosis inhibitor, and CP is a clathrin-mediated endocytosis inhibitor. […]
Subsequently, the present inventors investigated whether alloferon may dissolve Huntington protein aggregates (Htt aggregates) generated after the transient transfection of mutant Huntington protein (mt-Htt) into 293T cell lines. […] For cell observation, GFP signals were analyzed through a fluorescence microscope, and ImageJ was used for size and number analysis of GFP-positive aggregates (FIG. 8A). […]

[2] = test system: TFEB, cathepsin B, and cathepsin D; assay: Western blot of TFEB, cathepsin B and cathepsin D expression; type: cell-based, ICR mouse
Experimental: The cerebral cortex nerve cells of the mice were obtained by extracting the cerebrum from ICR mouse embryos of 13-14 day gestation. 6-7 hemispheres per culture dish were inoculated on 24-well culture dishes or 6-well culture dishes (SPL Life Science, South Korea) coated with 0.01% poly-D-lysine (Sigma, USA) prepared in advance. A cell culture medium, in which Dulbecco's Modified Eagle's Medium (DMEM, Gibco, USA) to which 20 mM glucose and 38 mM sodium bicarbonate were added and which was further supplemented with 5% fetal bovine serum (Hyclone, USA), 5% horse serum (Gibco, USA), and 1% glutamine, was used, and the cell culture medium was incubated in a cell incubator, in which the conditions of 37° C. and 5% CO2 were maintained, and was used in this experiment 10 to 12 days in vitro (DIV) after inoculation.
The present inventors had observed that the effect of enhancing the autophagic flux by the alloferon D-form peptides is achieved through the activity of cathepsin B and the decrease in the lysosomal pH, and thus, this time, the present inventors investigated through western blot analysis in order to find out whether there is a change in the amount of lysosomal protease expression. […]

[3] = test system: β-amyloid aggregates (Aβ aggregates); assay: β-amyloid 1-42 protein aggregates in transfected 293T cells; type: cell-based
Experimental: as §1
In the pre-preparation process, 10-12 days after cell culture, the culture medium of the cerebral cortex nerve cells was changed to a minimum essential medium (MEM, Gibco, USA) without adding serum, and then was treated with N,N,N′,N′-tetrakis(2-pyridylmethyl)ethylene-diamine (TPEN, 2 μM, Sigma, USA), which is a zinc chelator, 50 μM chloroquine (CQ), 100 nM bafilomycin A-1 (Baf-A1), 500 μM methyl-beta-cyclodextrin (MβCD), and 2 μM chloropromazine (CP). Here, the MβCD is a caveolin-mediated endocytosis inhibitor, and CP is a clathrin-mediated endocytosis inhibitor. In addition, in the cell line experiments, the medium was changed to MEM according to the purpose of the experiments and was then treated with 40 μM chloroquine (CQ) and 100 nM bafilomycin A-1 (Baf-A1). During the pre-preparation process, the medium was treated with alloferon D-form peptides (0.2, 2, or 20 μM), free zinc (25 μM), TPEN (1 μM), and the like separately or together according to the purpose of each experiment.
Subsequently, the present inventors investigated whether alloferon may dissolve the β-amyloid aggregates (Aβ aggregates) generated after the transient transfection of β-amyloid 1-42 (Aβ1-42) into 293T cell lines. To this end, EGFP-tagged 1-42Aβ (pEGFP-C1-Abeta 1-42) DNA was transiently transfected into 293T cell lines using Lipofectamine2000. For cell observation, GFP signals were analyzed through a fluorescence microscope, and ImageJ was used for size and number analysis of GFP-positive aggregates. pEGFP-C1-Abeta 1-42 DNA was purchased from Addgene. […]

cortical nerve cells = assay: Lysotracker staining (lysosomal pH); type: cell-based, ICR mouse
Text: The cerebral cortex nerve cells of the mice were obtained by extracting the cerebrum from ICR mouse embryos of 13-14 day gestation. 6-7 hemispheres per culture dish were inoculated on 24-well culture dishes or 6-well culture dishes (SPL Life Science, South Korea) coated with 0.01% poly-D-lysine (Sigma, USA) prepared in advance. […]
Since it was confirmed through FIG. 2 that alloferon may promote the autophagic flux, whether the alloferon D-form peptides are involved in pH change in the lysosome was confirmed through lysotracker staining. […] It means that the stronger the fluorescence intensity, the lower the pH, and the weaker the fluorescence intensity, the higher the pH. It was confirmed that the pH in the lysosome was lowered by only the treatment with the alloferon D-form peptides compared to the control (FIG. 3A), and when treatment with 50 μM CQ was performed, the fluorescence intensity decreased compared to the control, and this was recovered by the treatment with the alloferon D-form peptides and zinc (FIG. 3B). […]

[4] = treatment alone, without Baf-A1

Compound: CC(C)[C@@H](NC(=O)CNC(=O)[C@H](N)Cc1c[nH]cn1)C(=O)N[C@H](CO)C(=O)NCC(=O)N[C@H](Cc1c[nH]cn1)C(=O)NCC(=O)N[C@H](CCC(N)=O)C(=O)N[C@H](Cc1c[nH]cn1)C(=O)NCC(=O)N[C@@H](C(=O)N[C@H](Cc1c[nH]cn1)C(=O)NCC(=O)O)C(C)C [alloferon D-form peptides] (H-[dH]G[dV][dS]G[dH]G[dQ][dH]G[dV][dH]G-OH; N-terminus and C-terminus assumed)
- Huntington protein aggregates increased by Baf-A1 ([1]; 100 nM bafilomycin A1 + 20 μM peptide or 25 μM zinc, 12 hours (FIG. 8)): decreased
- Huntington protein aggregates compared to the control [1, 4]: no change
- amounts of TFEB, cathepsin B, and cathepsin D ([2]; 20 μM, indicated times (FIG. 5B)): gradually increased in a time-dependent manner
- amounts of TFEB, cathepsin B, and cathepsin D ([2]; indicated concentrations, 6 hours (FIG. 5A)): increased in a concentration-dependent manner
- β-amyloid protein aggregates increased by Baf-A1 (fluorescence) ([3]; 100 nM bafilomycin A1 + 2 or 20 μM peptide or 25 μM zinc, 12 hours (FIG. 7A)): decreased
- β-amyloid aggregates increased by Baf-A1 (western blot) ([3]; 100 nM bafilomycin A1 + peptide or 25 μM zinc, 12 hours (FIG. 7B)): decreased
- β-amyloid protein aggregates compared to the control group [3, 4]: no change
- lysotracker fluorescence intensity decreased by 50 μM CQ (cortical nerve cells; 20 μM peptide or 25 μM zinc + 50 μM chloroquine, 4 hours (FIG. 3B)): recovered
- pH in the lysosome compared to the control (cortical nerve cells; peptide alone, 4 hours (FIG. 3A)): lowered
